The record followed here is publication PMC7819943, “Rice protein-binding microarrays: a tool to detect cis-acting elements near promoter regions in rice”.

The chains behind the UniProt entries cited, without tags or fusion partners.
UniProt Q0JBA9, entry or part of it: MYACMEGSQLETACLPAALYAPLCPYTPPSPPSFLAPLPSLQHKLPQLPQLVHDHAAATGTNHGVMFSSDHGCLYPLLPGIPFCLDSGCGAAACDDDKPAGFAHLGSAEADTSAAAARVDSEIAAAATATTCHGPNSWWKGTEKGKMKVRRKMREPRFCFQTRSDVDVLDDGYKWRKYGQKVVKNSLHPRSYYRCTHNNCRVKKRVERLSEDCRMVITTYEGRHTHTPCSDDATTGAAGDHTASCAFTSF

The list shows a part of the results.

This test deals with OsWRKY34 (Oryza sativa, UniProt Q0JBA9 1-250). In words: protein-binding microarray (RPBM); PBS, 2% BSA, 51.3 ng/ul salmon testes DNA, 50 uM zinc acetate, 200 nM TF, 25 C, 1 h; high values mean tight binding. As to conditions: protein: recombinant; tags: N-terminal polyhistidine and DsRed monomer fusion (pET32a); label: CyDye5-dUTP incorporated in the synthesized complementary strand; 3' TTTTT single-stranded linker to array surface; dsDNA, one strand shown. Summed up: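 An Axon 4000B scanner gave the binding signal as per-feature fluorescence intensity in arbitrary units. This followed washing of a custom Agilent array that had been incubated for 1 h at 25 °C with 200 nM protein in PBS, 2% BSA, salmon testes DNA and 50 µM zinc acetate. The proteins were transcription factors fused at the N-terminus to polyhistidine and DsRed, expressed in E. coli BL21-CodonPlus and purified on Ni–NTA.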
For “AGGTTTTGTAGGGGTGGTGGACTGGGCCACGGCCCATGGGCGGAGTCACCTAGTGCAG”, the binding signal was 10400 fluorescence intensity (a.u.). The figure for “GCATTACGGTCTAGATGGGTTGTTTAACAGGGTTCATGGCCGGAGTCACCTAGTGCAG” is 8030 fluorescence intensity (a.u.). The figure for “CTCTTTTGTTAGCTACAACACGTGGCCAGCATCGACGTAGCGGAGTCACCTAGTGCAG” is 8280 fluorescence intensity (a.u.). The figure for “GAACGTCTGGACGTTGGAACACTCCATGTTTTTGTCTGATCGGAGTCACCTAGTGCAG” is 8740 fluorescence intensity (a.u.); for “CCTTTCTTTTGACACGGTTTTTCACCCTTACCGCTCTAGTCGGAGTCACCTAGTGCAG” it is 8430 fluorescence intensity (a.u.). As for “TCCCAGCCGTCCATCTCCTACGTGAGAGCTCCACCGCCACCGGAGTCACCTAGTGCAG”, the binding signal is 9960 fluorescence intensity (a.u.). The same measure for “GTGATAAACTCAACGACTGCCACTAACCTCCTCGCGTGCCCGGAGTCACCTAGTGCAG”: 8480 fluorescence intensity (a.u.); for “ATTGAGGTATTTTTTGCAACATCCCTTCGATGGCTATTTCCGGAGTCACCTAGTGCAG”: 9080 fluorescence intensity (a.u.); for “GGGTGAAGGCCACGTGCGTATCGACATGCCTATTTATTCTCGGAGTCACCTAGTGCAG”: 8340 fluorescence intensity (a.u.).

As for “AATAGTTCTTTTCTCTAAATTTATGATTTTTGACATATTTCGGAGTCACCTAGTGCAG”, the binding signal is 8020 fluorescence intensity (a.u.). The same measure for “GTATTTGGGCCTCGTAACTCAGGTTGGAACACCTACTCATCGGAGTCACCTAGTGCAG”: 10700 fluorescence intensity (a.u.); for “TCTCCCAGGCCACCATCGGCGTCCACATCCCGCCGTCCGCCGGAGTCACCTAGTGCAG”: 8470 fluorescence intensity (a.u.); for “GAGCCGAGCCAAACCTTGCTAGCCGGGGAGGGGTAGTTTTCGGAGTCACCTAGTGCAG”: 10500 fluorescence intensity (a.u.). The same measure for “AGAGGTGGAGGAAGTGGGTTAGTGGGTCCCACTATTTTTTCGGAGTCACCTAGTGCAG”: 9680 fluorescence intensity (a.u.); for “TTAGAGAGTGGCATATCGTCCCTTTTCTCGATCTGCACCACGGAGTCACCTAGTGCAG”: 8580 fluorescence intensity (a.u.).

With “CTTCGTTTCTCGTCTTCGCCGGCGGCCGCCGCATTTCTGACGGAGTCACCTAGTGCAG”, the binding signal is 8580 fluorescence intensity (a.u.).

Turning to “AGCAAAATGCAGGCAGGGTCTCATCTTTTCACTTATATTTCGGAGTCACCTAGTGCAG”, the binding signal is 8950 fluorescence intensity (a.u.).

For “AGAGGCTAGTGTTTGAGGGAGGGGAAGGGGATGAGAGGAGCGGAGTCACCTAGTGCAG”, the binding signal is 10200 fluorescence intensity (a.u.).

“TGCTGCCATGCTTCTATTTCATTTATATTTATTGCAGTATCGGAGTCACCTAGTGCAG”: the binding signal is 10800 fluorescence intensity (a.u.). On to “AACAATCTTCACTAGAATTCATGTGCTGGCTTTATATTTGCGGAGTCACCTAGTGCAG”, for which the binding signal is 9270 fluorescence intensity (a.u.).

With “AACTCATCTGACAGTGATCCATCGTCCTTTTTCTTTGACTCGGAGTCACCTAGTGCAG”, the binding signal was 10100 fluorescence intensity (a.u.).

Take “TTTCGTTTCCGTTTCTTGCGCCTCCTCCAACCGCGGCGGCCGGAGTCACCTAGTGCAG”: the binding signal was 9210 fluorescence intensity (a.u.).

Regarding “GCCGCGCACGCCGTCATCTCTTTTTCGTTCCATACTTCTCCGGAGTCACCTAGTGCAG”, the binding signal was 10700 fluorescence intensity (a.u.). The same measure for “TCCGCCACCACCGTCGCTCGATCCGTCGCCGCTGTCTCGACGGAGTCACCTAGTGCAG”: 10400 fluorescence intensity (a.u.). For the sequence “TCCCCGACAGATCGATCCAATTCGCATCATCGCATCACACCGGAGTCACCTAGTGCAG”, the binding signal is 8930 fluorescence intensity (a.u.).

Take “TTCTTTCGTAAGATCTTTGTGCTCTCTTGGCCTAGTGTTACGGAGTCACCTAGTGCAG”: the binding signal is 10500 fluorescence intensity (a.u.). For “TTTACTCTTTTACATGCTGGGATTATCTCTTCTTCACCTGCGGAGTCACCTAGTGCAG”, the binding signal is 8230 fluorescence intensity (a.u.). As to “ATTGTTCTTCAGATTGCTTTCGTTCTTTAAACAAATCTTCCGGAGTCACCTAGTGCAG”, the binding signal was 10300 fluorescence intensity (a.u.). The same measure for “ATGCATGCCATCATCGGAATCAAACATTCTGCATTTCTCTCGGAGTCACCTAGTGCAG”: 8390 fluorescence intensity (a.u.); for “GCTCCCGTAACCGCGCCGCCGCAGCCTCCGCCTCCGCGCGCGGAGTCACCTAGTGCAG”: 10100 fluorescence intensity (a.u.). The same measure for “TTCATAGTTCTGAAGTTGCTATTTTTTGTGTTCCAACCTTCGGAGTCACCTAGTGCAG”: 10600 fluorescence intensity (a.u.). The same measure for “AATCCTCCATGACTCGAGTCTCTCCTCGGATTAGGATCTACGGAGTCACCTAGTGCAG”: 9360 fluorescence intensity (a.u.); for “CAGTGAACTTATTCCTCACGTGAACCGGTCTTAGATTTCGCGGAGTCACCTAGTGCAG”: 9680 fluorescence intensity (a.u.); for “GTACTGCCATTAATCCCGATTTGTCCTTATTTATCTGTTTCGGAGTCACCTAGTGCAG”: 11600 fluorescence intensity (a.u.). With “GTGTGCTTATTCTTGTCCGTATTGTCATTGACTTGTCAACCGGAGTCACCTAGTGCAG”, the binding signal is 8890 fluorescence intensity (a.u.). Turning to “ATGCGTGCGCTCAGCCCATTCTGCTTGTATTTTCAGTACACGGAGTCACCTAGTGCAG”, the binding signal was 11300 fluorescence intensity (a.u.). The same measure for “TTCCTATCAGAATCCTATATTTTTCCTATTCCTCTGTTTTCGGAGTCACCTAGTGCAG”: 8060 fluorescence intensity (a.u.); for “AGCTTCACTTGTGCTCCACTGCAACCAGTACACCACATTACGGAGTCACCTAGTGCAG”: 10400 fluorescence intensity (a.u.). The figure for “TTTTCCTTTCACTTTTGTTTTTGTTTTTCATGTAGTATGACGGAGTCACCTAGTGCAG” is 10100 fluorescence intensity (a.u.); for “GGGTGCATTTTTCTCCCTTCCTCATGATAAGCTGGGCCTTCGGAGTCACCTAGTGCAG” it is 8130 fluorescence intensity (a.u.); for “AACATGCCGACACTGTAAGCTACTATATAAGTTTCTCCAACGGAGTCACCTAGTGCAG” it is 8730 fluorescence intensity (a.u.). The figure for “AATTTGCTTATTATGCCTTGTTAGGTTCATTCTTTGAATACGGAGTCACCTAGTGCAG” is 8940 fluorescence intensity (a.u.); for “AGTTTGACCTTTTCATGTCATGAATTTTTTTTAAAAAAATCGGAGTCACCTAGTGCAG” it is 9400 fluorescence intensity (a.u.); for “CGCTATCACCGTGCGACACCGTGCGGTCTCACGCTGTCATCGGAGTCACCTAGTGCAG” it is 9510 fluorescence intensity (a.u.). “GCTCACTCACTCTGCTGGCAGCTTCCCCTAGGTTGTCCTTCGGAGTCACCTAGTGCAG”: the binding signal is 13500 fluorescence intensity (a.u.). With “CTGTTTGCGCCATACTCTTGTTTGTGCACTAGATCTTCTTCGGAGTCACCTAGTGCAG”, the binding signal is 10800 fluorescence intensity (a.u.). The same measure for “GGCACCGGTCAGATCAGTTTGACTCCGTTTCCGTCCCCACCGGAGTCACCTAGTGCAG”: 11200 fluorescence intensity (a.u.); for “CGCGATCCGCCTCCGCCTCGAGCCCAAACCCACCCACCAACGGAGTCACCTAGTGCAG”: 8300 fluorescence intensity (a.u.). The figure for “ACTTCTTCTACGTGATTTCCTGATTCGCCTCATCCGCTTCCGGAGTCACCTAGTGCAG” is 9060 fluorescence intensity (a.u.); for “ATCGTCATAGTCTTCGTCAGACTTCTATCTCGATCGCTTTCGGAGTCACCTAGTGCAG” it is 11700 fluorescence intensity (a.u.). The figure for “GCTTTGAGTGTGACTACAGTGTCTGCTACTCCTACTACTCCGGAGTCACCTAGTGCAG” is 10400 fluorescence intensity (a.u.). Take “CCGTATACGTCAAACTTTTTTTTTTTTGCCAAAACATCTACGGAGTCACCTAGTGCAG”: the binding signal is 8530 fluorescence intensity (a.u.).

“GTCATCTTTGTTTGAGTCGGTTTTTAATTTTGTTTGCTTTCGGAGTCACCTAGTGCAG”: the binding signal was 17700 fluorescence intensity (a.u.). The figure for “CGGCGCCTCCTCGCCCTCGCGCCGCCCGCCGTGTGCCATGCGGAGTCACCTAGTGCAG” is 8940 fluorescence intensity (a.u.).
